Consider one molecule from patent publication US20200369769A1.

Amino acid sequences for entries named in this document (tags omitted). Residues count along the entry.
UniProt B5TVM2, residues 36-661: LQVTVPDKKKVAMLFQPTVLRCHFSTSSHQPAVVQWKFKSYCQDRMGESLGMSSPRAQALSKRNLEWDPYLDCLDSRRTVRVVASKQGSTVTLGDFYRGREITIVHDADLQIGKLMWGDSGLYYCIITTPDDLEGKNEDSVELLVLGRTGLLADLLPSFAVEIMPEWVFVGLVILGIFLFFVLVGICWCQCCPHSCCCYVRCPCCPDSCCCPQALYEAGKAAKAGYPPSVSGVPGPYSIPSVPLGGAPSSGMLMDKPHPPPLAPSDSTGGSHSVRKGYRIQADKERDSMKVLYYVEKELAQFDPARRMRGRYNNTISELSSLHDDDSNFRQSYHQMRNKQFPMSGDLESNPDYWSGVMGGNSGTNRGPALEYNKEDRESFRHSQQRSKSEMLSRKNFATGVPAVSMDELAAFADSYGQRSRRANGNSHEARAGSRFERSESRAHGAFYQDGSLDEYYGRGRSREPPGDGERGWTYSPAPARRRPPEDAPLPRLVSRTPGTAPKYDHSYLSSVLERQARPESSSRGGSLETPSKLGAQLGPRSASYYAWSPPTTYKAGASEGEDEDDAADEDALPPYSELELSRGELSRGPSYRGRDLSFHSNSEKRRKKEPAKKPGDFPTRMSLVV

The assay has as its target murine ILDR2 (murine) (UniProt B5TVM2). Description: flow cytometry on HEK cells expressing murine ILDR2.

These are yes or no findings as the source states them, for the method shown. Some binding calls cover weakened binding; strength is not graded here.

B1: 61-02.C05 (antibody, V domains shown)
VH: EVQLVESGGGVVQPGGSLRLSCAASGFTFSSYAMSWVRQAPGKGLEWVSGISSSGGSTQYADSVKGRFTVSRDNSKNTLYLQMKSLRAEDTALYYCAKDFVGVLPDAFDIWGQGTMVTVSS
VL: DIQLTQSPSSLSASVGDRVTITCQASQDTNKYLNWYQQKPGKAPELLIYGASTLESGVPPRFSASGSGTDFTLTINSLQPEDIGRYYCQQYHIPPPSFGGGTKLEIK
Take B1: the binding entry is recorded as “binds”.
